Measurements as given in publication doi:10.1101/2020.09.29.317958.

Target: endogenous NFATc3 (mouse (endogenous in Neuro2A))
Assay: proximity ligation

Binder	binding
endogenous Trim39 (protein, UniProt Q9ESN2 1-488) MAETSLLEAGASAASTAAALENLQVEASCSVCLEYLKEPVIIECGHNFCKACITRWWEDLERDFPCPVCRKTSRYRSLRPNRQLGSMVEIAKQLQTVKRKIRDESLCSQHHEPLSLFCYEDQEAVCLICAISHTHRPHTVVPMDDATQEYKEKLQKCLEPLEQKLQEITCCKASEEKKPGELKRLVESRRQQILKEFEELHRRLDEEQQTLLSRLEEEEQDILQRLRENAAHLGDRRRDLAHLAAEVEGKCLQSGFEMLKDVKSTLEKCEKVKTMEVTSVSIELEKNFSNFPRQYFALRKILKQLIADVTLDPETAHPNLVLSEDRKSVKFVETRLRDLPDTPQRFTFYPCVLATEGFTSGRHYWEVEVGDKTHWAVGVCRDSVSRKGELTPLPETGYWRVRLWNGDKYAATTTPFTPLHIKVKPKRVGIFLDYEAGTLSFYNVTDRSHIYTFTDTFTEKLWPLFYPGIRAGRKNAAPLTIRPPTDWE	binds
Flag-Trim39 (protein, UniProt Q9ESN2 1-488) MAETSLLEAGASAASTAAALENLQVEASCSVCLEYLKEPVIIECGHNFCKACITRWWEDLERDFPCPVCRKTSRYRSLRPNRQLGSMVEIAKQLQTVKRKIRDESLCSQHHEPLSLFCYEDQEAVCLICAISHTHRPHTVVPMDDATQEYKEKLQKCLEPLEQKLQEITCCKASEEKKPGELKRLVESRRQQILKEFEELHRRLDEEQQTLLSRLEEEEQDILQRLRENAAHLGDRRRDLAHLAAEVEGKCLQSGFEMLKDVKSTLEKCEKVKTMEVTSVSIELEKNFSNFPRQYFALRKILKQLIADVTLDPETAHPNLVLSEDRKSVKFVETRLRDLPDTPQRFTFYPCVLATEGFTSGRHYWEVEVGDKTHWAVGVCRDSVSRKGELTPLPETGYWRVRLWNGDKYAATTTPFTPLHIKVKPKRVGIFLDYEAGTLSFYNVTDRSHIYTFTDTFTEKLWPLFYPGIRAGRKNAAPLTIRPPTDWE	binds

No constants are given. Whether binding was seen depends on the method and setting. In cells and extracts the contact can be indirect. Binding calls can cover weak binding; strength is not graded here. Tags and fused reporters may be left off the sequences shown.
